# Assay results reported in paper PMC12431657, “Discovery and mechanistic insights of dibenzoylmethane as a broad spectrum inhibitor of coronavirus” (PLOS Pathogens, 2025).
# Where a name gives a salt, the structure may show the parent alone. Read-outs that look alike come from different tables or passages of the source. In all, about 3,300 compounds went through this assay and about 60 (2%) showed an effect of 50% or more. This is one part of the list.
# System: HCoV-OC43
# Set-up: species or system RD; HTS, protection from HCoV-OC43 induced cell death, luminescent cell viability (CellCounting-Lite 2.0), inhibition rate
# Conditions: 24 h post infection, 1 h compound pre-incubation, 10 µM, inhibitor
SMILES,OC43 Inhibition rate,"OC43 Inhibition rate (OC43 Inhibition rate, 24 h)"
CC(C)=CCC[C@](C)(O)[C@H]1CC[C@]2(C)[C@@H]1[C@H](O)C[C@@H]1[C@@]3(C)CC[C@H](O)C(C)(C)[C@@H]3[C@@H](O[C@@H]3O[C@H](CO)[C@@H](O)[C@H](O)[C@H]3O[C@@H]3OC[C@@H](O)[C@H](O)[C@H]3O)C[C@]12C [Notoginsenoside R2],0.5%,
O=c1cc(CCc2ccccc2)oc2c1[C@H](O)[C@@H](O)[C@@H](O)[C@@H]2O [Agarotetrol],-0.2%,
CCCCCCCC/C=C/CCCCCCCC(=O)O [Elaidic acid],-0.4%,
Oc1cc(O)c2c(c1)O[C@@]1(c3ccc(O)c(O)c3)Oc3cc(O)c4c(c3[C@@H]2[C@H]1O)O[C@H](c1ccc(O)c(O)c1)[C@H](O)C4 [Procyanidin A2],-2.4%,
c1cc2c(cc1[C@H]1OC[C@@H]3[C@H]1CO[C@H]3c1ccc3c(c1)OCO3)OCO2 [(-)-Asarinin],10.9%,
C[C@@H]1[C@H]2[C@H](O[C@@H]3O[C@H](CO)[C@@H](O)[C@H](O)[C@H]3O)OC=C(C(=O)O)[C@H]2C[C@@H]1O [Loganic acid],-0.4%,
C[C@H](CC[C@@H](O[C@@H]1O[C@H](CO[C@@H]2O[C@H](CO)[C@@H](O)[C@H](O)[C@H]2O)[C@@H](O)[C@H](O)[C@H]1O[C@@H]1O[C@H](CO)[C@@H](O)[C@H](O)[C@H]1O)C(C)(C)O)[C@H]1CC[C@@]2(C)[C@@H]3CC=C4[C@@H](CC[C@H](O[C@@H]5O[C@H](CO)[C@@H](O[C@@H]6O[C@H](CO)[C@@H](O)[C@H](O)[C@H]6O)[C@H](O)[C@H]5O)C4(C)C)[C@]3(C)[C@H](O)C[C@]12C [Isomogroside V],0.4%,
COc1cc2c(c(OC)c1OC)-c1c(cc3c(c1OC)OCO3)C[C@H](C)[C@H](C)C2 [Schisandrin B],2%,
C[C@@H]1O[C@@H](OC[C@H]2O[C@@H](OCCc3ccc(O)c(O)c3)[C@H](O)[C@@H](OC(=O)/C=C/c3ccc(O)c(O)c3)[C@@H]2O)[C@H](O)[C@H](O)[C@H]1O [Isoforsythiaside],,-0.9%
C/C=C/C=C/C=C\CC/C=C/C(=O)NCC(C)(C)O [Hydroxy-α-sanshool],2.3%,
COc1c(O)cc2oc(-c3ccccc3)cc(=O)c2c1O [Oroxylin A],1.5%,
CN1CCc2cc3c(cc2C1O)OCO3 (stereo not drawn) [Hydrastinine (hydrochloride)],,-0.5%
"CC(=O)N[C@H]1[C@H](O[C@@H]([C@H](O)[C@H](C=O)NC(C)=O)[C@H](O)CO)O[C@H](CO)[C@@H](O[C@@H]2O[C@H](CO)[C@@H](O)[C@H](O)[C@H]2NC(C)=O)[C@@H]1O [N,N',N''-Triacetylchitotriose]",0.7%,
C/C(=C\C(=O)OCCCCCCCCC(=O)O)C[C@@H]1OC[C@H](C[C@@H]2O[C@H]2[C@@H](C)[C@H](C)O)[C@@H](O)[C@H]1O [Mupirocin],32.7%,
CCCCCCCCCCCCCCCC(=O)O [Palmitic acid],-7.6%,
CC(C)=CCC[C@](C)(O[C@@H]1O[C@H](CO[C@@H]2O[C@@H](CO)[C@H](O)[C@H]2O)[C@@H](O)[C@H](O)[C@H]1O)[C@H]1CC[C@]2(C)[C@@H]1[C@H](O)C[C@@H]1[C@@]3(C)CC[C@H](O[C@@H]4O[C@H](CO)[C@@H](O)[C@H](O)[C@H]4O)C(C)(C)[C@@H]3CC[C@]12C [Notoginsenoside Fe],-1.4%,
C=Cc1ccc(O)c(OC)c1 [2-Methoxy-4-vinylphenol],2.1%,
COc1cc2c(=O)c(-c3ccc(O)cc3)coc2cc1O[C@@H]1O[C@H](COC(C)=O)[C@@H](O)[C@H](O)[C@H]1O [6''-O-Acetylglycitin],-0.2%,
COc1cc(C[C@H]2COC(=O)[C@@H]2Cc2ccc(O)c(OC)c2)ccc1O [Matairesinol],-1.2%,
COc1ccc2cc3[n+](cc2c1OC)CCc1cc2c(cc1-3)OCO2 [Berberine (sulfate)],,-3.2%
NC(Cc1ccc(O)c(O)c1)C(=O)O (racemic) [DL-Dopa],-1%,
Cc1c(O)cc2c(c1C)O[C@](C)(CCC[C@H](C)CCC[C@H](C)CCCC(C)C)CC2 [γ-Tocopherol],-0.4%,
c1coc(CNc2ncnc3[nH]cnc23)c1 [Kinetin],-0.3%,
COC(=O)c1ccc(O)c(OC)c1 [Methyl vanillate],-0.4%,
C[C@]12CCC(=O)C=C1CC[C@@H]1[C@@H]2[C@@H](O)C[C@]2(C=O)[C@@H](C(=O)CO)CC[C@@H]12 [Aldosterone],0%,
CC(C)=CCO [3-Methyl-2-buten-1-ol],1%,
O=C(CO)[C@@H](O[C@H]1O[C@H](CO)[C@@H](O)[C@H](O)[C@H]1O)[C@H](O)[C@H](O)CO [Turanose],-2.5%,
C=C1CC/C=C(\C)CC[C@@H]2[C@@H]1CC2(C)C [β-Caryophyllene],0.1%,
C[C@H]1[C@H](C)CC[C@]2(C(=O)O[C@@H]3O[C@H](CO[C@@H]4O[C@H](CO)[C@@H](O[C@@H]5O[C@H](C)[C@H](O)[C@@H](O)[C@H]5O)[C@H](O)[C@H]4O)[C@@H](O)[C@H](O)[C@H]3O)CC[C@]3(C)C(=CC[C@@H]4[C@@]5(C)C[C@@H](O)[C@H](O)[C@@](C)(CO)[C@@H]5CC[C@]43C)[C@H]12 [Asiaticoside],-0.7%,
COc1c(O)cc2oc(-c3ccc(O)c(O)c3)cc(=O)c2c1O [Nepetin],0.9%,

# Part of the list above, set out differently:
SMILES | OC43 Inhibition rate | OC43 Inhibition rate (OC43 Inhibition rate, 24 h)
C[C@H](CC[C@@H](O[C@@H]1O[C@H](CO[C@@H]2O[C@H](CO)[C@@H](O)[C@H](O)[C@H]2O)[C@@H](O)[C@H](O)[C@H]1O[C@@H]1O[C@H](CO)[C@@H](O)[C@H](O)[C@H]1O)C(C)(C)O)[C@H]1CC[C@@]2(C)[C@@H]3CC=C4[C@@H](CC[C@H](O[C@@H]5O[C@H](CO)[C@@H](O[C@@H]6O[C@H](CO)[C@@H](O)[C@H](O)[C@H]6O)[C@H](O)[C@H]5O)C4(C)C)[C@]3(C)[C@H](O)C[C@]12C [Isomogroside V] | 0.4% | 
NC(Cc1ccc(O)c(O)c1)C(=O)O (racemic) [DL-Dopa] | -1% | 
